Data as given in publication PMC11908827, “PpERF17 alleviates peach fruit postharvest chilling injury under elevated CO2 by activating jasmonic acid and γ-aminobutyric acid biosynthesis”.
The exact form of at least one protein or probe is not confirmed.

test system: PpMYC2.1; test: EMSA; settings: Chemiluminescent EMSA Kit (Beyotime); pH and temperature not stated; recombinant protein; protein details: GST (N-terminal, pGEX-4T-1); label: biotin

Sequence | binding result
AATTACACACAATGCCACATGTCCACCTCCGGTAAT (double strand) [PpMYC2.1-PpGAD probe] | binds
CAAAGAGTTATTAGGCACGTTGTGCCAAAACATTTA (double strand) [PpMYC2.1-PpAOS probe] | binds
GAGAAGACAAGGGGACACATGTCCTTTGAACCCAAC (double strand) [PpMYC2.1-Pp13S-LOX probe] | binds
GAGAATCTCGATTGCCACGTGTCTTATTCCAGATAA (double strand) [PpMYC2.1-PpOPR3 probe] | binds
GAGGAATGAACAACACACGTGCTTGAATCACATATT (double strand) [PpMYC2.1-PpERF17 probe] | binds
